Measurements published in patent publication US11911413B2, “Methods and compositions for the treatment of pain and/or inflammation” (Proteobioactives Pty Limited, priority 2018, dated 2024).
At least one structure is not confirmed: it was looked up by name or label, or the drawing left a doubt.

Legend:
[1] = system: patients with osteoarthritis joint pain and stiffness; assay: Open case studies of individual arthritic patients taking oral Pentabrex (Examples 1-5); type: in vivo, human
[2] = system: patients with knee OA; assay: Double-blind comparator clinical trial Pentabrex vs celecoxib, knee OA (Example 7); type: in vivo, human; settings: Celecoxib group compared with Pentabrex group
Excerpt: A prospective, dose ranging, double-blind, comparator clinical trial to evaluate the tolerability and efficacy of Pentabrex™, (Proteobioactives Pty Ltd, Balgowlah, NSW, Australia) compared to celecoxib, for the relief of symptoms in elderly patients with OA of the hand and knee conducted at the Subiaco Rheumatology Clinic, Subiaco, Perth, WA, Australia.
Thirty three male and female patients with symptomatic hand or knee OA were obtained from referrals sent by general medical practitioners located in Perth (Western Australia) suburbs. […] If patients had both hand and knee OA each most painful joint was assessed separately. […]
Although patients were requested not to consume additional analgesics or NSAIDs over the duration of the study, if they found this to be too difficult because of the unacceptable level of pain they experienced, they were required to document the drugs and quantities they used for relief of pain in a six week daily diary that supplied with the clinical trial test package manufactured by the compounding chemist (Kingsway, Brookvale NSW 2100, Australia). […]
For patients with OA of the knee joints their VAS pain scores were determined for their pain at rest, pain on walking and early morning stiffness. […]

Compound: Cc1ccc(-c2cc(C(F)(F)F)nn2-c2ccc(S(N)(=O)=O)cc2)cc1 [Celecoxib, 4-[5-(4-methylphenyl)-3-(trifluoromethyl)pyrazol-1-yl] benzene sulfonamide]
- symptoms of joint pain exacerbated by physical activity ([1]; patient five, PTOA, earlier complementary medicines with regular use of Celebrex): remained unresolved
- pain and joint stiffness ([1]; patient four, knee injury and bursitis, earlier prescribed Celebrex): not satisfactorily resolved
- pain from contralateral hip joint and lumbar spine ([1]; patient one, earlier oral analgesics or NSAIDs including daily Celebrex (200 mg)): not ameliorated
- pain from ankles and hands ([1]; patient three, idiopathic OA, earlier 200 mg Celebrex daily without high doses of analgesics): not effectively attenuated
- relief of pain and joint stiffness ([1]; patient two, earlier treatment, higher doses of analgesics (codeine and paracetamol) and twice daily Celebrex (200 mg)): failed to provide lasting relief
- consumption of additional analgesics and/or NSAIDS during the study [2]: higher than for the Pentabrex™ treated group
- consumption of additional analgesics and/or NSAIDS during the study ([2]; listed as celecoxib): consumed a larger number of supplementary analgesics
